# Library screen at single concentrations

Chains of the proteins cited; added tags and fusions are not shown. Residues count along the entry.
UniProt Q4DA54, 1-478: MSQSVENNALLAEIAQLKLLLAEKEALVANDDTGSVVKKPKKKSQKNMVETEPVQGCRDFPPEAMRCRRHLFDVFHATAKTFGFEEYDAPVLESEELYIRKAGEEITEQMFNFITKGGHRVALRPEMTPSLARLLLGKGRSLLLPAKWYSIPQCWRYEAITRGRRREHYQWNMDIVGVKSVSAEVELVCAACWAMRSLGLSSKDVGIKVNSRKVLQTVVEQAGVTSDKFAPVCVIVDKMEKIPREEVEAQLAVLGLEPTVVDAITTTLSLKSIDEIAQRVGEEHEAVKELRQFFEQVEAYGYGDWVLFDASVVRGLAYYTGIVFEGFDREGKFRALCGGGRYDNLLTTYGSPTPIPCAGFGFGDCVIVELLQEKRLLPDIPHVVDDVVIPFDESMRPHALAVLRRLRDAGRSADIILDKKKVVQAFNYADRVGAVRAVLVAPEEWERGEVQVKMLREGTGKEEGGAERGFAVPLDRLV
UniProt A4I591, 1-473: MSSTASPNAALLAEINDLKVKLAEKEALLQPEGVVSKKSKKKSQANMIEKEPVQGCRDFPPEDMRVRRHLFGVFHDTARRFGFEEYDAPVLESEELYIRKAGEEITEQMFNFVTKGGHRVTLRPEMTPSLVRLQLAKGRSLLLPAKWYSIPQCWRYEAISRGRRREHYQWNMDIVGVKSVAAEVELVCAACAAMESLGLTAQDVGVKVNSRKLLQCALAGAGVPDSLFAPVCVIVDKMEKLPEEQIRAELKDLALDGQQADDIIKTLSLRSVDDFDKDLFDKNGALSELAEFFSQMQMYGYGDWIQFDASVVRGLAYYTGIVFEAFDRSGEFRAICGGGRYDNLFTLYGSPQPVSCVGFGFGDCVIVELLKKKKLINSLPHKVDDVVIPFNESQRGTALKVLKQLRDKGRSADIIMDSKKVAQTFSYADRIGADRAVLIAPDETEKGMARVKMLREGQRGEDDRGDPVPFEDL
UniProt P9WPC5, whole entry: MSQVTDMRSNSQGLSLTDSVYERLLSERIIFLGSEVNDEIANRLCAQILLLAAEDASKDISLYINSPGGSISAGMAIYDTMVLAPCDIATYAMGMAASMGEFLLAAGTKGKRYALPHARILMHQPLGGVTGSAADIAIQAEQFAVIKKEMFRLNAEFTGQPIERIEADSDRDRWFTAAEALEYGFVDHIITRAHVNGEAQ
UniProt P9WPC3, whole entry partner: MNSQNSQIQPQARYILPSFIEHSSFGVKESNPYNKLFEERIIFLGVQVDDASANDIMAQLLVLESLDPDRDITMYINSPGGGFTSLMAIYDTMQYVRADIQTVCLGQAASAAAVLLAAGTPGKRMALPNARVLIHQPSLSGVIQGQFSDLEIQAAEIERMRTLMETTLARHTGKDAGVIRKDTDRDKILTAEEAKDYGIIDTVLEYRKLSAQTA

The values are deposited in ChEMBL (CHEMBL3988442, “University of Dundee, Small-Polar-MMV Screening Library” (2021)).

Toxoplasma: 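Assay of Toxoplasma gondii numbers, read through their beta-galactosidase reporter with a colour substrate. Tested at 10 µM. The record gives no direction; the compounds picked for IC50 retests had high values, so higher reads as fewer parasites. About 67,000 compounds were tested under these conditions; 0.38% (about 260) showed 50% or more at least once.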
Leishmania in macrophages: 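Cell assay of Leishmania donovani living inside macrophages; the read-out is not stated. Compounds at 30 µM. Direction is inferred from retests: higher values go with stronger inhibition. Size under these conditions: about 69,000 compounds, about 1,000 of them at 50% or above in at least one test.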
TcHisRS: 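Histidine-tRNA ligase, Trypanosoma cruzi CL Brener (UniProt Q4DA54). Enzyme assay of histidyl-tRNA synthetase; the read-out is not stated. Compounds at 30 µM. The record gives no direction; compounds that gave an IC50 in retests scored well above the rest, so higher reads as stronger inhibition. Size under these conditions: about 69,000 compounds, about 31 of them at 50% or above in at least one test.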
LiHisRS: 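Histidine-tRNA ligase, Leishmania infantum (UniProt A4I591). Enzyme assay of histidyl-tRNA synthetase; the read-out is not stated. Compounds at 30 µM. Higher reads as stronger inhibition (inferred: compounds with an IC50 in retests scored well above the rest). The assay is labelled LdHisRS but filed under L. infantum. About 69,000 compounds were tested under these conditions; 0.6% (about 410) showed 50% or more at least once.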
ClpP1P2: 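ClpP1P2, Mycobacterium tuberculosis (UniProt P9WPC5 and UniProt P9WPC3). Protease assay of ClpP1P2, read by the AMC dye that it sets free. Compounds at 50 µM. Direction is inferred from only a few compounds that gave an IC50; most scored high, so higher reads as stronger inhibition. Most other retested compounds had strongly negative values. Of about 69,000 compounds tested this way, about 10 (0.015%) reached 50% or more in at least one test.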
T. brucei: 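Whole-parasite assay of Trypanosoma brucei over 72 hours; the read-out is not stated. Concentration: 30 µM. The record gives no direction; compounds that gave an IC50 in retests scored well above the rest, so higher reads as stronger inhibition. Values scatter widely below zero; nearly all retest evidence comes from the higher of the two concentrations used. About 64,000 compounds were tested under these conditions; 1.5% (about 940) showed 50% or more at least once.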

Each number is a percent effect as filed.
The controls that fix the scale are not given in the record; negative values are as filed.
The compounds are a random part of those screened.

- C[S+]([O-])c1nncn1CC(=O)c1ccc(Cl)c(Cl)c1 (stereo unspecified) : Toxoplasma: 3.03%; Leishmania in macrophages: -1.028%; TcHisRS: -4.237%; LiHisRS: 1.887%; ClpP1P2: 0.7155%; T. brucei: -18.17%
- CC1c2ncc(CNC(=O)C3CC3)n2CCN1Cc1ccsc1 (stereo unspecified) : TcHisRS: 9.524%; LiHisRS: 16.67%; ClpP1P2: -24.37%
- O=C(c1cncc(N2CCC3(CC2)NCCNC3=O)n1)N1CCCCC1 : Toxoplasma: -1.594%; Leishmania in macrophages: -0.6485%; TcHisRS: 4.545%; LiHisRS: 13.33%; ClpP1P2: 2.683%; T. brucei: -8.442%
- CN(Cc1ccccc1CN1CCCC1)c1ncnc2[nH]ccc12 : Toxoplasma: -4.619%; Leishmania in macrophages: 13.87%; TcHisRS: 31.91%; LiHisRS: 47.14%; ClpP1P2: -2.677%; T. brucei: -7.11%
- Cc1ccccc1OCn1ccc(C(=O)NCCN2CCOCC2)n1 : Toxoplasma: 0.202%; Leishmania in macrophages: -13.65%; TcHisRS: -0.8696%; LiHisRS: 5.172%; ClpP1P2: -4.487%; T. brucei: -1.925%
- O=C(O)C(F)(F)F.O=C(O)C(F)(F)F.O=C(O)C(F)(F)F.[H][C@]12C[C@@H](CN(C)C)N(C)[C@@]1([H])CCN(c1ncc(C)cn1)C2 : Toxoplasma: -0.6627%; Leishmania in macrophages: 14.24%
- Cn1cccc1C(=O)NCc1cnc2n1CCN(CC1CCOCC1)C2.O=C(O)C(F)(F)F : Toxoplasma: -46.69%; Leishmania in macrophages: -10.05%; T. brucei: -41.58%
- COc1ccc(OCCc2cc(C3CCN(CC(C)C)C3)n[nH]2)cc1 (stereo unspecified) : TcHisRS: 10.61%; LiHisRS: 14.08%; ClpP1P2: -9.242%
- CCCc1ccc(OCCNCc2ccco2)c(OC)c1 : TcHisRS: 5.051%; LiHisRS: 6.557%; ClpP1P2: -15.9%
- Cc1nc(CN2CCOCC3(CCN(c4cnccn4)CC3)C2)cs1.O=C(O)C(F)(F)F : Toxoplasma: 11.09%; Leishmania in macrophages: -12.86%; T. brucei: -20.99%
- O=C(NCC1CC1)c1n[nH]c2c1CNCC2.O=C(O)C(F)(F)F.O=C(O)C(F)(F)F : Toxoplasma: -11.31%; Leishmania in macrophages: -0.9017%; T. brucei: 2.514%
- O=C(NCCCn1cncn1)c1ccc(-c2ccco2)[nH]c1=O : Toxoplasma: -12.91%; Leishmania in macrophages: 10.09%; TcHisRS: 6.173%; LiHisRS: 19.35%; ClpP1P2: -210.6%; T. brucei: -0.3006%

The last 2 entries again:

- O=C(NCC1CC1)c1n[nH]c2c1CNCC2.O=C(O)C(F)(F)F.O=C(O)C(F)(F)F | Toxoplasma: -11.31%; Leishmania in macrophages: -0.9017%; T. brucei: 2.514%
- O=C(NCCCn1cncn1)c1ccc(-c2ccco2)[nH]c1=O | Toxoplasma: -12.91%; Leishmania in macrophages: 10.09%; TcHisRS: 6.173%; LiHisRS: 19.35%; ClpP1P2: -210.6%; T. brucei: -0.3006%